These are yes or no findings as the source states them, for the method shown. Binding seen in cells or lysates may run through a third protein. Some results given as binding are weak or reduced against the parent protein; the word gives no strength.
Biological target: MYCN (N-Myc) (human (endogenous in IMR32)) (UniProt P04198)
Assay: co-IP; MYCN co-IP from IMR32 lysate, western blot with antibodies to MYCN, G9a and WDR5; Benzonase (500 U/ml) and Mg2+ (2 mM) added as indicated

Sequences of proteins named here, by UniProt entry; tags and fusion partners are left off.
UniProt P04198: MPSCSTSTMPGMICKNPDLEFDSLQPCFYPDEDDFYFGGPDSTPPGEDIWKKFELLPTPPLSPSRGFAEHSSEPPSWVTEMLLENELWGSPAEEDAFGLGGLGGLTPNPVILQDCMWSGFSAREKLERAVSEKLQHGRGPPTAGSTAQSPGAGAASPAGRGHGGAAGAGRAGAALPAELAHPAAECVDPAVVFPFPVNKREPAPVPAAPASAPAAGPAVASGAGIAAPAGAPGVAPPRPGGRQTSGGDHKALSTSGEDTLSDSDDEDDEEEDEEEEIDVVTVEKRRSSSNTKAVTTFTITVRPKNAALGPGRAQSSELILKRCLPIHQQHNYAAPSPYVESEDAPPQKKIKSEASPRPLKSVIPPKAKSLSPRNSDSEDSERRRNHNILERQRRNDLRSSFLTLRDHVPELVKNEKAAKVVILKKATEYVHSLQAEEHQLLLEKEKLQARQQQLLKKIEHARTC
UniProt Q96KQ7: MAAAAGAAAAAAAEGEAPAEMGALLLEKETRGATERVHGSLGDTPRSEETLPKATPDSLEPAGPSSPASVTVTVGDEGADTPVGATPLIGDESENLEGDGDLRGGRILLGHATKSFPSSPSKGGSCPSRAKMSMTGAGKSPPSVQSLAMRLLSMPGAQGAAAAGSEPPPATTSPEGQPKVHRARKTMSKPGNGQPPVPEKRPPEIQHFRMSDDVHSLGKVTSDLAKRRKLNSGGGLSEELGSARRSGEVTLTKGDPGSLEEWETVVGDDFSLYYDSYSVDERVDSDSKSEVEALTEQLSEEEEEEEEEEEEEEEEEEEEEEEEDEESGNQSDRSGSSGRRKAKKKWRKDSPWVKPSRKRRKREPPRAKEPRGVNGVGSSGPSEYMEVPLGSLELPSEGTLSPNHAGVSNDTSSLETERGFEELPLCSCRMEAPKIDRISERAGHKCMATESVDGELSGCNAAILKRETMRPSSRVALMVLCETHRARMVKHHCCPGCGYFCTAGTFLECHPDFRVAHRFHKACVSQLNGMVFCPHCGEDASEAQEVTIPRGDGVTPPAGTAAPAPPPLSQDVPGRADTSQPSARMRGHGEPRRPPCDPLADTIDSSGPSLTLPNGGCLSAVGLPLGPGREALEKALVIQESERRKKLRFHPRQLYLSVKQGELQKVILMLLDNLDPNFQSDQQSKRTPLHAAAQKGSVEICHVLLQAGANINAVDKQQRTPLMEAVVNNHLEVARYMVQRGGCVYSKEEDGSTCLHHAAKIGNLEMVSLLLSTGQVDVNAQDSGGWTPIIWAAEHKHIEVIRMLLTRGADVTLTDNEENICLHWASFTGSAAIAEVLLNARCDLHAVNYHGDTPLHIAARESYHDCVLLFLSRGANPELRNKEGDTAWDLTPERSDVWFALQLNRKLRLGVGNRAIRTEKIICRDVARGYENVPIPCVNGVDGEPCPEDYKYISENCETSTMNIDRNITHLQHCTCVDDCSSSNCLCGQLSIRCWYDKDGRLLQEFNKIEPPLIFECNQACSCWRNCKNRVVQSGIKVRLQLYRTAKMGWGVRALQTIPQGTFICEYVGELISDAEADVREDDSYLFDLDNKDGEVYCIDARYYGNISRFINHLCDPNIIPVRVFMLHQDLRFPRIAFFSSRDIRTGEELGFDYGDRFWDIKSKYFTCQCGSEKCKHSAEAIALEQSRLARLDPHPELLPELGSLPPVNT

binding: binds
Substance: G9a (histone methyltransferase, also known as EHMT2) (from UniProt Q96KQ7 1-1210) (enzyme)

Reference: publication PMC11003700
